Source: the supplement of paper PMC10849652
The other results are listed elsewhere or left out.

Protein sequences, listed by entry. Tags and fused reporters are not part of them. Lines headed by an entry give the natural chain unless they say otherwise; changes in a name come on top.
UniProt P26368, whole entry, looked up: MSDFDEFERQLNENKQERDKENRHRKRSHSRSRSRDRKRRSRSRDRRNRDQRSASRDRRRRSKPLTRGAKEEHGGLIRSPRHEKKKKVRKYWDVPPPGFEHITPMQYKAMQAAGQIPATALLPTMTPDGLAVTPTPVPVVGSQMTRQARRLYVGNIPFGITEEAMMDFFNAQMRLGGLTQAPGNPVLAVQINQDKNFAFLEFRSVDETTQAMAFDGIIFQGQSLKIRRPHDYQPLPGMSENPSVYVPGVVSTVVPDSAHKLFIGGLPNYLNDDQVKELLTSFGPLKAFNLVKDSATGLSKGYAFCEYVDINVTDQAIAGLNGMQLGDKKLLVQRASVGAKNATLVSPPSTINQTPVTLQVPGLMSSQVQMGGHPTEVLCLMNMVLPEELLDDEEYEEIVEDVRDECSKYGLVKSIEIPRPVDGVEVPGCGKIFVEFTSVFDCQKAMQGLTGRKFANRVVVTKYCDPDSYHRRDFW
UniProt Q9NUQ3: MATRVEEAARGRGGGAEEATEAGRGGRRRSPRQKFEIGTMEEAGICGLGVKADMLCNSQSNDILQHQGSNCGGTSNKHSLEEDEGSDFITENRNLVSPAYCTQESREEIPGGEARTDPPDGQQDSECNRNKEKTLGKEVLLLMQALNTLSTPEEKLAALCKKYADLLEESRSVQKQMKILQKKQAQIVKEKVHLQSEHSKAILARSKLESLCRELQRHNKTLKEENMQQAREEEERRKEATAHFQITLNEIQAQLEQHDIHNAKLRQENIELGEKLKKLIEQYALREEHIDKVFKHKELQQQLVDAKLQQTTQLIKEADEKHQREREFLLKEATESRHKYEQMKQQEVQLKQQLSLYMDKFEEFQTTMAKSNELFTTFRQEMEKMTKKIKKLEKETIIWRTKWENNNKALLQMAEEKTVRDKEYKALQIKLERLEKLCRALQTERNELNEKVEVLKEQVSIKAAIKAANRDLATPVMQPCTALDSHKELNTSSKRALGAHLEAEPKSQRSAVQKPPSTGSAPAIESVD
UniProt Q9HA47: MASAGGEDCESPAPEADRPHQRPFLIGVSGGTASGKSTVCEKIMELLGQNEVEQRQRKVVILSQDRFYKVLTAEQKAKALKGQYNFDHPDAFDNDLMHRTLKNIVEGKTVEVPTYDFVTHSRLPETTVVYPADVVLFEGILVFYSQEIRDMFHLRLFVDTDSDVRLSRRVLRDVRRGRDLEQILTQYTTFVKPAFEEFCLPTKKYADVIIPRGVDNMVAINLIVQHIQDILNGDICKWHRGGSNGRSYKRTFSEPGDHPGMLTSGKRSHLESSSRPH
UniProt Q9GZZ9, whole entry, looked up: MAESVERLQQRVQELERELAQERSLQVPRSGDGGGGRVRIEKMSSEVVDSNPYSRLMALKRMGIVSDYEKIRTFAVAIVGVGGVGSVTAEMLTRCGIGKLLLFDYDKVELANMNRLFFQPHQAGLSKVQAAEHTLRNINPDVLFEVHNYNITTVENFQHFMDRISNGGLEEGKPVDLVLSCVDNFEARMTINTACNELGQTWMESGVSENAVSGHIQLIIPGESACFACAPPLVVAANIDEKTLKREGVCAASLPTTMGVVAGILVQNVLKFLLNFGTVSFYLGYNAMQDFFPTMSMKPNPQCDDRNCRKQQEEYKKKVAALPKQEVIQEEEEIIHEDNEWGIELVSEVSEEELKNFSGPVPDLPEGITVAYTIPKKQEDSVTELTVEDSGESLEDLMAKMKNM
UniProt P40222: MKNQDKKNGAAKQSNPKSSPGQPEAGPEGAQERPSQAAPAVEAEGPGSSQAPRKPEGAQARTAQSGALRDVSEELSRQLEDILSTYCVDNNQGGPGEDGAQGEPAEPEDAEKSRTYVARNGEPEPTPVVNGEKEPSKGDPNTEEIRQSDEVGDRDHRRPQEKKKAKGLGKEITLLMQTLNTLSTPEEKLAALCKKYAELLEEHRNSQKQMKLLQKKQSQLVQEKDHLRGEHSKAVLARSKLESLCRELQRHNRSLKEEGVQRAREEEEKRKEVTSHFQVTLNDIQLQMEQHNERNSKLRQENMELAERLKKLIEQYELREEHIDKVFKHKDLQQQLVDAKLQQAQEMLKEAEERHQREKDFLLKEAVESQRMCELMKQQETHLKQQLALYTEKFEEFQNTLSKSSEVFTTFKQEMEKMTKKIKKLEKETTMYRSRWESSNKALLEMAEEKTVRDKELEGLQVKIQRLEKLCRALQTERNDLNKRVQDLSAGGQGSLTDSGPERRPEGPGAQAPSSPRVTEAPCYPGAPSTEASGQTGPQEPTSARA
UniProt O14562: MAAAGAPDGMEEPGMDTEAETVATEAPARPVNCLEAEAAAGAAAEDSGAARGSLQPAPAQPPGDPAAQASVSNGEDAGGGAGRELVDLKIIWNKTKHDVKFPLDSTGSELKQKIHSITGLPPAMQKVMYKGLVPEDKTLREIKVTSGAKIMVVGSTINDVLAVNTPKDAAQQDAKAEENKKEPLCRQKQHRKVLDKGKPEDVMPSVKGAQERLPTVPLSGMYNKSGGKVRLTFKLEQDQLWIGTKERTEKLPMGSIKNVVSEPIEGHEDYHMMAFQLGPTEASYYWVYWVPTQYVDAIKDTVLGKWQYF
UniProt P23258, whole entry, looked up: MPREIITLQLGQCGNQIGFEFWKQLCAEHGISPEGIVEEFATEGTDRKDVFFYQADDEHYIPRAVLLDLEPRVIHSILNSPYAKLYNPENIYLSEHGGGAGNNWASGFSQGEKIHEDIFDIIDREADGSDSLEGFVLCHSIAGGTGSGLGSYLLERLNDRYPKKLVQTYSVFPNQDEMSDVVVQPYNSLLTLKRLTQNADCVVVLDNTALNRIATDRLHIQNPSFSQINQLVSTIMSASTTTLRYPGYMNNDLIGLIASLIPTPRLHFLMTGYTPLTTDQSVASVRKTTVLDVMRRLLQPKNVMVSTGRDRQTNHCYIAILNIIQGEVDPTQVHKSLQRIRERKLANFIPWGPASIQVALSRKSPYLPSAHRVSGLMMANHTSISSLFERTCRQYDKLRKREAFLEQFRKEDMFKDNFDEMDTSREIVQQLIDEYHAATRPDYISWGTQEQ
UniProt O43396: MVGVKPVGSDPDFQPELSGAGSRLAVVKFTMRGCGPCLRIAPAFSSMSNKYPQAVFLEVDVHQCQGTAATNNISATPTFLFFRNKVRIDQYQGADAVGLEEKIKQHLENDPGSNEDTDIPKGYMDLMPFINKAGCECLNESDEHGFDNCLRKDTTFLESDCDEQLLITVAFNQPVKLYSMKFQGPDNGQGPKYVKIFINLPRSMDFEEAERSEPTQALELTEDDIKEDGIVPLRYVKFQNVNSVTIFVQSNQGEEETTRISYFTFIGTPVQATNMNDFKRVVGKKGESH
UniProt Q8TBC4: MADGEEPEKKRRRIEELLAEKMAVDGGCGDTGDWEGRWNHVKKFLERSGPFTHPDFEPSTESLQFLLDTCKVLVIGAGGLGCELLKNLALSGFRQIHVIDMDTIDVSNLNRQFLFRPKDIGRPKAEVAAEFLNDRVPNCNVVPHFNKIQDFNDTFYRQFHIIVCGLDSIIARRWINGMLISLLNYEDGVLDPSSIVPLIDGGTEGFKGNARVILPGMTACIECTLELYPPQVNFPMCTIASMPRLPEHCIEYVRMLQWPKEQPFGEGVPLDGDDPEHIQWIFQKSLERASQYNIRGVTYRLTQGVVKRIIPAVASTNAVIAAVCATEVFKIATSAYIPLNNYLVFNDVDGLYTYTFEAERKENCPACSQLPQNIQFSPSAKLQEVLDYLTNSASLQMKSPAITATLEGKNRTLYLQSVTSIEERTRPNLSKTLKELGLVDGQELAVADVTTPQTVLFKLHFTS
UniProt Q15819: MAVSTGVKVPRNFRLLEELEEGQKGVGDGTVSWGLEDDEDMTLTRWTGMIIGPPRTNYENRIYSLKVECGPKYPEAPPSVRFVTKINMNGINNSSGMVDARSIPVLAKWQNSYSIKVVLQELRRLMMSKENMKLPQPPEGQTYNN
UniProt Q13454: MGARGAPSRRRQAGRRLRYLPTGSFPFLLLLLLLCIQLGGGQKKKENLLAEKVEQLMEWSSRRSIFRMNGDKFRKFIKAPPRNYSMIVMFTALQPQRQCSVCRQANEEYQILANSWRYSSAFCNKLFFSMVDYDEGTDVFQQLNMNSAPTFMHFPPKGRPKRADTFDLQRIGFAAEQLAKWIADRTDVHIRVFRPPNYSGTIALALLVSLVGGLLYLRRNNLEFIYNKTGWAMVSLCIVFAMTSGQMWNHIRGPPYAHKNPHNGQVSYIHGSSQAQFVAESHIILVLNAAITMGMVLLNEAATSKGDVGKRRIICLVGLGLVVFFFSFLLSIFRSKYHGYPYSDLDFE
UniProt Q96J42: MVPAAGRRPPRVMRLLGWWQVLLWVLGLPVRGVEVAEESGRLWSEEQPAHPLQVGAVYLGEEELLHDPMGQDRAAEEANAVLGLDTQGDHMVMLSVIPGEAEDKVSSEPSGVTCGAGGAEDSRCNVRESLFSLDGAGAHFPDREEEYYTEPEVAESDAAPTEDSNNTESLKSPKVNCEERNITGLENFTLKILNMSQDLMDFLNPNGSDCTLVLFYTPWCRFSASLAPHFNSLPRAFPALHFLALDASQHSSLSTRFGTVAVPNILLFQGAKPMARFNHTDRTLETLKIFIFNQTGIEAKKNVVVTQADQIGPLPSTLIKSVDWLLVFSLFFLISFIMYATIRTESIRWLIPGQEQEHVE
UniProt Q96S82: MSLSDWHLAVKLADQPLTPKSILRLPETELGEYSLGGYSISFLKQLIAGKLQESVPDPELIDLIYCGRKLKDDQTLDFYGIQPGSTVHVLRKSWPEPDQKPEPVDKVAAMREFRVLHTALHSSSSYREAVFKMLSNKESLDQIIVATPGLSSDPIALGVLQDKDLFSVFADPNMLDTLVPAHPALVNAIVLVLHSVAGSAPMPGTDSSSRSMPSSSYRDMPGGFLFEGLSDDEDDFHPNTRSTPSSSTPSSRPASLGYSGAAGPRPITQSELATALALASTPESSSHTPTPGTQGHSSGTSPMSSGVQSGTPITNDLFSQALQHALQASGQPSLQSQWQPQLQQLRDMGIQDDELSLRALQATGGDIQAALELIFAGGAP
UniProt P61081: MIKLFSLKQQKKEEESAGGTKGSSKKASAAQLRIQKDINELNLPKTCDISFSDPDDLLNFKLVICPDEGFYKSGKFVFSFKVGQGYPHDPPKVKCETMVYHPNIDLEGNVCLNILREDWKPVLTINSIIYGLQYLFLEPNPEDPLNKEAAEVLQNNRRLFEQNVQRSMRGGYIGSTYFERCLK
UniProt Q15386: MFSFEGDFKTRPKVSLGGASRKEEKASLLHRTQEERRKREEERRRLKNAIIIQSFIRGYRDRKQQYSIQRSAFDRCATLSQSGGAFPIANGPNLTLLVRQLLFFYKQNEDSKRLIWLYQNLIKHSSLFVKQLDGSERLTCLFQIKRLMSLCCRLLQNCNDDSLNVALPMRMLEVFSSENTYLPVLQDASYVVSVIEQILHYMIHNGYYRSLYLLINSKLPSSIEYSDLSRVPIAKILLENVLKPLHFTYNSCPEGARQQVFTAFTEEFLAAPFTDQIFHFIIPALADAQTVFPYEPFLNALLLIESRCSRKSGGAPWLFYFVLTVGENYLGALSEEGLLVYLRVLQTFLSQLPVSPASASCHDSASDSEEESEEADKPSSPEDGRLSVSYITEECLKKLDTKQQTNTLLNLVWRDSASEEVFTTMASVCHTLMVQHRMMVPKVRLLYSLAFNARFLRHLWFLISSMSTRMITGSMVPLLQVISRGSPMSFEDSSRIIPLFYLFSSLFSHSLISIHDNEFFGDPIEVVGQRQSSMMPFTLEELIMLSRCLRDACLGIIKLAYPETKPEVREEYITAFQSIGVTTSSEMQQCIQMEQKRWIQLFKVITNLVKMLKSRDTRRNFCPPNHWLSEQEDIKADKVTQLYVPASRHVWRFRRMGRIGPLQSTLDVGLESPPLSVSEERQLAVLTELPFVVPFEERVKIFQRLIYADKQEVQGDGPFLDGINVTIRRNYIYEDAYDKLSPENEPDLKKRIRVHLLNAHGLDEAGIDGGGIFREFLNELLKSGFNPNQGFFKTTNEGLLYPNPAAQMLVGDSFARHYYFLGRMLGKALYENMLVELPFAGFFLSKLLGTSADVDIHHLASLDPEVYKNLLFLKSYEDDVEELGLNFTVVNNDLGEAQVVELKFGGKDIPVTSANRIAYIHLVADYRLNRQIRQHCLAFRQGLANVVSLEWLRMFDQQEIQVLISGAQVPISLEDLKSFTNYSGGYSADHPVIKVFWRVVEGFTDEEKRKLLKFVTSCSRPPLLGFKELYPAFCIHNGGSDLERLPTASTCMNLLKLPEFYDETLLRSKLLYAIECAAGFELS

How the values were obtained:
Test in all cases: log2 fold change, soluble protein after heating vs DMSO (PISA); higher = thermal stabilisation; K562 lysate, 10 uM; active = over 0.2 and 3.5 SD of the protein, either way, in both replicates (recomputed)
lapatinib = compound: CS(=O)(=O)CCNCc1ccc(-c2ccc3ncnc(Nc4ccc(OCc5cccc(F)c5)c(Cl)c4)c3c2)o1 [lapatinib]
Outline: (§1)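 Quantification was by TMTpro 16plex LC-MS/MS with equalised channel sums, applied to the supernatant after 21,000xg for 90 min. Samples were crude K562 extract at 1 mg/mL protein in PBS pH 7.4 with 1 mM MgCl2, treated with 10 μM compound for 30 min, heated for 3 min across 48°C-58°C, pooled and brought to 0.5% NP-40 at 4°C. Values are log-two fold changes in thermal stability relative to solvent controls, from duplicates.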

pictilisib = compound: CS(=O)(=O)N1CCN(Cc2cc3nc(-c4cccc5[nH]ncc45)nc(N4CCOCC4)c3s2)CC1 [pictilisib]
Outline: as §1

crizotinib = compound: C[C@@H](Oc1cc(-c2cnn(C3CCNCC3)c2)cnc1N)c1c(Cl)ccc(F)c1Cl [crizotinib]
Outline: as §1

[1] = compound: C[C@H](C1=CC=C(C=C1)C(=O)NC2=C3C=CNC3=NC=C2)N
Outline: as §1

duvelisib = compound: C[C@H](Nc1ncnc2nc[nH]c12)c1cc2cccc(Cl)c2c(=O)n1-c1ccccc1 [duvelisib]
Outline: as §1

gandotinib = compound: Cc1cc(Nc2cc(CN3CCOCC3)c3nc(C)c(Cc4ccc(Cl)cc4F)n3n2)n[nH]1 [gandotinib]
Outline: as §1

tozasertib = compound: Cc1cc(Nc2cc(N3CCN(C)CC3)nc(Sc3ccc(NC(=O)C4CC4)cc3)n2)n[nH]1 [tozasertib]
Outline: as §1

doramapimod = compound: Cc1ccc(-n2nc(C(C)(C)C)cc2NC(=O)Nc2ccc(OCCN3CCOCC3)c3ccccc23)cc1 [doramapimod]
Outline: as §1

bafetinib = compound: Cc1ccc(NC(=O)c2ccc(CN3CC[C@H](N(C)C)C3)c(C(F)(F)F)c2)cc1Nc1nccc(-c2cncnc2)n1 [bafetinib]
Outline: as §1

[2] = compound: Cc1cccc(CC(=O)N2CCc3c2ccc(-c2cn(C)c4ncnc(N)c24)c3F)n1
Outline: as §1

nilotinib = compound: Cc1cn(-c2cc(NC(=O)c3ccc(C)c(Nc4nccc(-c5cccnc5)n4)c3)cc(C(F)(F)F)c2)cn1 [nilotinib]
Outline: as §1

[3] = compound: Cc1nc(Nc2n[nH]c3c2CN(C(=O)N[C@H](CN(C)C)c2ccccc2)C3(C)C)c2sccc2n1
Outline: as §1

dasatinib = compound: Cc1nc(Nc2ncc(C(=O)Nc3c(C)cccc3Cl)s2)cc(N2CCN(CCO)CC2)n1 [dasatinib]
Outline: as §1

[4] = compound: Cc1ncc(-c2ccnc(Nc3ccc(S(C)(=O)=O)cc3)n2)n1C(C)C
Outline: as §1

[5] = compound: Cn1cc(-c2ccc3c(c2)CCN3C(=O)Cc2cccc(C(F)(F)F)c2)c2c(N)ncnc21
Outline: as §1

quisinostat = compound: Cn1cc(CNCC2CCN(c3ncc(C(=O)NO)cn3)CC2)c2ccccc21 [quisinostat]
Outline: as §1

tipifarnib = compound: Cn1cncc1[C@@](N)(c1ccc(Cl)cc1)c1ccc2c(c1)c(-c1cccc(Cl)c1)cc(=O)n2C [tipifarnib]
Outline: as §1

[6] = compound: NC(=O)Nc1cc(-c2cccc(F)c2)sc1C(=O)N[C@H]1CCCNC1
Outline: as §1

[7] = compound: NC(=O)c1cnc(N[C@@H]2CCCC[C@@H]2N)nc1Nc1cccc(-n2nccn2)c1
Outline: as §1

[8] = compound: NC1(c2ccc(-c3nc4ccn5c(=O)[nH]nc5c4cc3-c3ccccc3)cc2)CCC1
Outline: as §1

Measured: log2 fold change

U2AF2 (UniProt P26368)
inactive: lapatinib 0.015 | pictilisib -0.012 | crizotinib 0.009 | [1] -0.056 | duvelisib 0.008 | gandotinib -0.118 | tozasertib 0.005 | doramapimod 0.005 | bafetinib -0.044 | [2] 0.045 | nilotinib 0.045 | [3] -0.079 | dasatinib 0.004 | [4] 0 | [5] 0.001 | quisinostat 0.03 | tipifarnib 0.047 | [6] -0.102 | [7] 0.006 | [8] 0.027

UBR4 (UniProt Q5T4S7)
inactive: lapatinib -0.023 | pictilisib -0.015 | crizotinib -0.038 | [1] -0.017 | duvelisib -0.001 | gandotinib -0.08 | tozasertib 0 | doramapimod 0.01 | bafetinib -0.038 | [2] 0.037 | nilotinib 0.007 | [3] 0.002 | dasatinib -0.027 | [4] 0.001 | [5] 0.018 | quisinostat -0.014 | tipifarnib -0.001 | [6] 0.023 | [7] -0.005 | [8] -0.001

TXLNG (UniProt Q9NUQ3)
inactive: lapatinib -0.009 | pictilisib 0.005 | crizotinib 0.068 | [1] -0.011 | duvelisib 0.003 | gandotinib 0.031 | tozasertib 0.004 | doramapimod -0.019 | bafetinib 0.034 | [2] -0.004 | nilotinib 0.009 | [3] -0.008 | dasatinib 0.019 | [4] -0.001 | [5] 0.007 | quisinostat 0.025 | tipifarnib 0.011 | [6] -0.008 | [7] -0.006 | [8] 0.015

UCK1 isoform 4 (UniProt Q9HA47)
inactive: lapatinib 0.082 | pictilisib -0.013 | crizotinib -0.002 | [1] -0.073 | duvelisib 0.063 | gandotinib -0.02 | tozasertib -0.03 | doramapimod -0.033 | bafetinib -0.012 | [2] 0.061 | nilotinib -0.058 | [3] 0.081 | dasatinib 0.137 | [4] 0.011 | [5] 0.011 | quisinostat -0.093 | tipifarnib -0.055 | [6] 0.036 | [7] -0.07 | [8] 0.044

UBA5 (UniProt Q9GZZ9)
inactive: lapatinib -0.017 | pictilisib -0.017 | crizotinib -0.02 | [1] -0.012 | duvelisib 0.038 | gandotinib -0.023 | tozasertib -0.065 | doramapimod 0.048 | bafetinib 0.01 | [2] -0.008 | nilotinib -0.051 | [3] 0.027 | dasatinib 0.027 | [4] -0.067 | [5] -0.001 | quisinostat 0.015 | tipifarnib 0.059 | [6] 0.005 | [7] 0.014 | [8] 0.019

Copied from the entries so far (two entries):
TXLNG (UniProt Q9NUQ3)
inactive: lapatinib -0.009 | pictilisib 0.005 | crizotinib 0.068 | [1] -0.011 | duvelisib 0.003 | gandotinib 0.031 | tozasertib 0.004 | doramapimod -0.019 | bafetinib 0.034 | [2] -0.004 | nilotinib 0.009 | [3] -0.008 | dasatinib 0.019 | [4] -0.001 | [5] 0.007 | quisinostat 0.025 | tipifarnib 0.011 | [6] -0.008 | [7] -0.006 | [8] 0.015

UCK1 isoform 4 (UniProt Q9HA47)
inactive: lapatinib 0.082 | pictilisib -0.013 | crizotinib -0.002 | [1] -0.073 | duvelisib 0.063 | gandotinib -0.02 | tozasertib -0.03 | doramapimod -0.033 | bafetinib -0.012 | [2] 0.061 | nilotinib -0.058 | [3] 0.081 | dasatinib 0.137 | [4] 0.011 | [5] 0.011 | quisinostat -0.093 | tipifarnib -0.055 | [6] 0.036 | [7] -0.07 | [8] 0.044

(continued)

TXLNA (UniProt P40222)
inactive: lapatinib -0.009 | pictilisib -0.005 | crizotinib 0.062 | [1] 0.037 | duvelisib -0.017 | gandotinib 0.004 | tozasertib -0.004 | doramapimod -0.021 | bafetinib 0.023 | [2] -0.053 | nilotinib -0.018 | [3] 0.011 | dasatinib 0.011 | [4] 0.036 | [5] 0.014 | quisinostat 0.042 | tipifarnib 0.031 | [6] -0.027 | [7] 0.002 | [8] 0.013

UBFD1 (UniProt O14562)
inactive: lapatinib -0.038 | pictilisib -0.005 | crizotinib -0.003 | [1] -0.047 | duvelisib -0.005 | gandotinib 0.047 | tozasertib 0.002 | doramapimod 0.029 | bafetinib 0.003 | [2] 0.017 | nilotinib -0.001 | [3] -0.003 | dasatinib -0.004 | [4] 0.012 | [5] -0.018 | quisinostat -0.013 | tipifarnib 0.02 | [6] -0.024 | [7] -0.02 | [8] -0.014

TUBG1 (UniProt P23258)
inactive: lapatinib -0.022 | pictilisib -0.043 | crizotinib -0.024 | [1] -0.017 | duvelisib -0.021 | gandotinib -0.044 | tozasertib -0.025 | doramapimod 0.017 | bafetinib -0.01 | [2] 0.032 | nilotinib 0.04 | [3] -0.005 | dasatinib -0.098 | [4] 0.013 | [5] 0.046 | quisinostat -0.026 | tipifarnib -0.051 | [6] 0.068 | [7] 0.03 | [8] 0.024

TXNL1 (UniProt O43396)
inactive: lapatinib -0.003 | pictilisib 0.002 | crizotinib -0.004 | [1] -0.018 | duvelisib -0.007 | gandotinib -0.006 | tozasertib -0.021 | doramapimod -0.008 | bafetinib -0.014 | [2] 0.012 | nilotinib 0.009 | [3] -0.004 | dasatinib 0.002 | [4] -0.025 | [5] 0 | quisinostat -0.009 | tipifarnib 0.01 | [6] -0.004 | [7] 0 | [8] 0.003

UBA3 (UniProt Q8TBC4)
inactive: lapatinib -0.026 | pictilisib -0.025 | crizotinib -0.016 | [1] -0.017 | duvelisib 0.019 | gandotinib 0.01 | tozasertib -0.001 | doramapimod 0.021 | bafetinib 0.025 | [2] -0.009 | nilotinib 0.057 | [3] -0.03 | dasatinib -0.003 | [4] 0.015 | [5] 0.019 | quisinostat -0.017 | tipifarnib 0.047 | [6] -0.005 | [7] -0.008 | [8] 0.021

UBE2V2 (UniProt Q15819)
inactive: lapatinib 0.02 | pictilisib 0.02 | crizotinib 0.032 | [1] 0.006 | duvelisib -0.026 | gandotinib -0.006 | tozasertib 0.005 | doramapimod -0.003 | bafetinib -0.006 | [2] -0.016 | nilotinib 0.001 | [3] 0.008 | dasatinib 0.024 | [4] -0.036 | [5] 0.115 | quisinostat 0.023 | tipifarnib 0.039 | [6] 0.004 | [7] -0.008 | [8] -0.014

TUSC3 isoform 2 (UniProt Q13454)
inactive: lapatinib 0.038 | pictilisib 0 | crizotinib -0.024 | [1] -0.165 | duvelisib -0.009 | gandotinib 0.099 | tozasertib 0.006 | doramapimod 0.008 | bafetinib -0.073 | [2] 0.099 | nilotinib -0.001 | [3] 0.065 | dasatinib 0.015 | [4] -0.036 | [5] -0.046 | quisinostat -0.049 | tipifarnib -0.06 | [6] 0.026 | [7] -0.006 | [8] -0.011

TXNDC15 (UniProt Q96J42)
inactive: lapatinib -0.009 | pictilisib -0.021 | crizotinib 0.048 | [1] 0.014 | duvelisib 0.047 | gandotinib -0.012 | tozasertib 0.027 | doramapimod 0.001 | bafetinib -0.071 | [2] -0.003 | nilotinib -0.033 | [3] -0.118 | dasatinib 0.033 | [4] 0.021 | [5] -0.002 | quisinostat -0.046 | tipifarnib -0.004 | [6] 0.077 | [7] -0.053 | [8] -0.028

UBL7 (UniProt Q96S82)
inactive: lapatinib 0.015 | pictilisib -0.016 | crizotinib 0 | [1] 0.013 | duvelisib -0.02 | gandotinib -0.045 | tozasertib 0.023 | doramapimod -0.021 | bafetinib -0.035 | [2] -0.015 | nilotinib -0.023 | [3] 0.039 | dasatinib 0.003 | [4] 0.02 | [5] 0.045 | quisinostat 0.011 | tipifarnib -0.055 | [6] 0.01 | [7] 0.012 | [8] -0.059

UBE2M (UniProt P61081)
inactive: lapatinib -0.014 | pictilisib 0.012 | crizotinib -0.03 | [1] 0.011 | duvelisib 0.017 | gandotinib -0.001 | tozasertib 0.013 | doramapimod 0.026 | bafetinib -0.04 | [2] -0.019 | nilotinib 0.014 | [3] -0.02 | dasatinib -0.053 | [4] 0.007 | [5] 0.016 | quisinostat 0.063 | tipifarnib 0.006 | [6] -0.041 | [7] 0.001 | [8] 0.008

UBE3C (UniProt Q15386)
inactive: lapatinib -0.004 | pictilisib -0.029 | crizotinib -0.055 | [1] -0.039 | duvelisib 0.007 | gandotinib -0.075 | tozasertib 0 | doramapimod 0.038 | bafetinib -0.036 | [2] 0.021 | nilotinib -0.006 | [3] 0.025 | dasatinib -0.047 | [4] -0.017 | [5] 0.049 | quisinostat 0.013 | tipifarnib 0.01 | [6] 0.061 | [7] 0.027 | [8] -0.053
